# Measurements as given in PubChem BioAssay AID1671190 (National Center for Advancing Translational Sciences (NCATS), 2021).
# Sequences of proteins named here, by UniProt entry; tags and fusion partners are left off. A change or cut given only in a name is not applied to a line headed by its entry.
# UniProt P18054: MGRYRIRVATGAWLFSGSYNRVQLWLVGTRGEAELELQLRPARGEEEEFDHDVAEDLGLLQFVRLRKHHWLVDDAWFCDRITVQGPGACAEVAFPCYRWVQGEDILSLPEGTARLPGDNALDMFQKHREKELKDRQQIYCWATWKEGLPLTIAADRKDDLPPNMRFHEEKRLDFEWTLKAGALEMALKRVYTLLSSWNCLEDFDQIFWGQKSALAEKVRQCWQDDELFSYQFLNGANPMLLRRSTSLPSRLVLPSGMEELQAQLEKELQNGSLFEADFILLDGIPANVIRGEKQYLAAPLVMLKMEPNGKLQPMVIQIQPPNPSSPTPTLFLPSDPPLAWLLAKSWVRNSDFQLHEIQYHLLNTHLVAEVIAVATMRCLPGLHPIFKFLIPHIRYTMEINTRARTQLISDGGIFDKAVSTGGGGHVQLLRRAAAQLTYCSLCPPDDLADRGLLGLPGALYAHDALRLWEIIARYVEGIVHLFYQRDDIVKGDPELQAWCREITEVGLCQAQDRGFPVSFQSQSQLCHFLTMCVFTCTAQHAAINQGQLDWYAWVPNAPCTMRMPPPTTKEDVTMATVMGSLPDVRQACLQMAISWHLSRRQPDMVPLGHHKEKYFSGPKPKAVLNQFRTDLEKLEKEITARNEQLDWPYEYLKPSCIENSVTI
# Hit rate of the full screen: of about 580,000 compounds, about 6,100 (1.1%) were called active. The shares of active, inactive and inconclusive entries below differ from those in the screen. Calls follow the shape of the dose curve; as a rule, active = well fitted inhibition curve with a large enough effect; inconclusive = small, poorly fitted or top-dose-only effect, or another doubt; inactive = no such curve, though single readings can be large or run the other way. Potencies beside an inconclusive call are fits to weak or partial responses and may not hold up.
# Target: Polyunsaturated fatty acid lipoxygenase ALOX12 (Homo sapiens) (UniProt P18054)
# Experiment: Primary qHTS assay for inhibitors of human arachidonate 12S-lipoxygenase (ALOX12): Round 2
# Settings: purified 12hLO, xylenol orange hydroperoxide absorbance; activity change, negative = inhibition: at 108 µM (top of the series) unless noted
# Summary of the method: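 Hydroperoxide product was detected by ferrous iron/xylenol orange as the 573 to 405 nm absorbance ratio. Arachidonic acid at 40 uM (final) was turned over for 30 min at room temperature by 150 nM human 12hLO, pH 7.0 Hepes buffer, after 15 min compound preincubation.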
# % is scaled to controls: 0 for no effect and ±100 for the full control effect; potency is read from the fitted curve at half-maximal effect.
Compound,"activity change, negative = inhibition",Potency
C[C@H](CO)N1C[C@H](C)[C@@H](CN(C)Cc2ccc(Cl)c(Cl)c2)Oc2c(NC(=O)CCC(F)(F)F)cccc2C1=O,inactive: -28.8%,
O=C(NCC(c1ccco1)N1CCc2ccccc2C1)c1ccccc1 (stereo not given),,"inconclusive: 3.98 µM [inhibitor, full curve, poor fit]"
Cc1cc2ccccc2n1CC(=O)NCCN1CCCC1,,"inconclusive: 56.2 µM [inhibitor, partial curve, poor fit]"
CNC(=O)N1CCC(C2CCN(S(=O)(=O)c3ccc(C)c(F)c3)C2)CC1 (stereo not given),,"inconclusive: 17.8 µM [inhibitor, full curve]"
CCc1ccc2c(c1)C1(NN=C(c3ccccc3)S1)C(=O)N2 (stereo not given),,"inconclusive: 44.7 µM [inhibitor, single point]"
CC1(Br)C(Sc2ccccc2[N+](=O)[O-])=Nc2ccccc21 (stereo not given),,active: 7.94 µM
CCCCCCCCCCCCCCCC[N+](C)(C)CC,,"inconclusive: 44.7 µM [inhibitor, partial curve, poor fit]"
CNC(=S)N1CCN(c2ccc(Cl)c(Cl)c2)CC1,,"inconclusive: 44.7 µM [inhibitor, partial curve, poor fit]"
COC(=O)c1ccc2nc(-c3ccc(F)cc3)c(Cc3ccsc3)n2c1,,active: 7.08 µM
COc1ccc(CNC(=O)c2cccc(OCc3ccccc3)c2)cc1,inactive: 6.16%,
COc1ccc(-c2csc(NC(C)=O)n2)cc1OC,inactive: 3.14%,
COc1ccc(CNC(=S)NCc2ccc(F)cc2)cc1OC,inactive: -25.9%,
CC1(C)CC(C)(c2ccccc2)c2cccc(C(=O)O)c2N1 (stereo not given),inactive: -59%,
Nc1cccc(NS(N)(=O)=O)c1,,"inconclusive: 3.98 µM [inhibitor, full curve, poor fit]"
CS(=O)(=O)c1ncc(N(Cc2ccco2)Cc2cccs2)c(C(=O)Nc2ccccc2F)n1,,"inconclusive: 126 µM [inhibitor, partial curve, poor fit]"
CC(C)(C)OC(=O)N1CCC(c2nnc(SCc3ccccc3Cl)o2)CC1,,inactive
COc1ccccc1CNC(=O)CN1C(=O)c2ccc([N+](=O)[O-])cc2C1=O,inactive: -1.08%,
COc1cc(/C=C(/C#N)C(=O)C(C)C)cc(Br)c1O,,"inconclusive: 14.1 µM [inhibitor, full curve]"
Cc1noc([C@@H]2CN(C(=O)c3n[nH]c4ccccc34)C[C@H]2C(N)=O)n1,inactive: 33.4%,
CC1CCCN(c2nc3ccccc3nc2C(C#N)S(=O)(=O)c2ccccc2)C1 (stereo not given),,"inconclusive: 63.1 µM [inhibitor, partial curve, poor fit]"
Cc1sc2nc(SCc3nc(-c4ccccc4)no3)n(-c3ccccc3)c(=O)c2c1C,inactive: -2.1%,
CN(C)C(=O)c1nc(C(C)(C)C)c2cnccn12,inactive: -2.47% [at 12.5 µM],
O=C(CNc1ccccc1F)Nc1cccc(S(=O)(=O)N2CCCCC2)c1,,"inconclusive: 79.4 µM [inhibitor, partial curve, poor fit]"

Compound,"activity change, negative = inhibition",Potency
CC(C)(C)OC(=O)C[C@H]1C/C=C\C[C@@H](CC(=O)N(CCO)Cc2ccccc2)C(=O)NC[C@@H](c2ccccc2)OC1=O,inactive: 10.8%,
NC(=O)CC(NC(=O)c1ccccc1)c1ccc(N2CCN(c3ccccn3)CC2)c([N+](=O)[O-])c1 (stereo not given),,"inconclusive: 56.2 µM [inhibitor, partial curve, poor fit]"
CN(Cc1cccc(F)c1)C(=O)COc1ccc2ccc(=O)oc2c1,inactive: -36.6%,
O=C(c1ccoc1)N1CCCCC1c1nc(CCOCC2CCOCC2)no1 (stereo not given),,"inconclusive: 79.4 µM [inhibitor, single point]"
O=C(O)c1ccc2c(c1)CC(=O)N2Cc1cccc(F)c1,,"inconclusive: 20 µM [inhibitor, full curve]"
C=CCn1c(SCc2ccc(Br)cc2F)nc2cc(C(=O)O)ccc2c1=O,,"inconclusive: 56.2 µM [inhibitor, partial curve, poor fit]"
CN(C)C(=O)CC(NC(=O)NCc1ccccc1)c1ccccc1 (stereo not given),inactive: 6.25%,
COC(=O)c1ccc(C(C(=O)NC2CCCCC2)N(Cc2ccc(F)cc2)C(=O)Cc2cccs2)cc1 (stereo not given),inactive: 11.5%,
CCOc1ccc(CNC(=O)CCCn2nc(C)c3c(C)n(-c4ccc(C)cc4)nc3c2=O)cc1,,"inconclusive: 158 µM [inhibitor, partial curve, poor fit]"
Cc1ccc(-c2noc(-c3nnn(CC(=O)Nc4ccc(C)cc4Cl)c3N)n2)cc1,,"inconclusive: 3.16 µM [inhibitor, full curve, poor fit]"
O=C(c1cccc(S(=O)(=O)N2CCOCC2)c1)N1CCN(Cc2ccc3c(c2)OCO3)CC1,inactive: -11.3%,
COc1cc(CN2CCN(c3cccc(Cl)c3)CC2)cc(OC)c1OC,,"inconclusive: 0.501 µM [inhibitor, full curve, poor fit]"
Cc1ccc(-n2cccc2/C=C2/C(=N)N3C(=NC2=O)SN=C3S(C)(=O)=O)cc1,,"inconclusive: 44.7 µM [inhibitor, partial curve, poor fit]"
CCOC(=O)N=Nc1c(O)n(CC(=O)OC)c2ccccc12,inactive: -2.73%,
CCc1nnc(N/N=C/c2ccc(O)c(OC)c2)n1N,,"inconclusive: 31.6 µM [inhibitor, single point]"
CCOc1ccccc1CNC(=O)c1ccc2c(c1)N(CC)CCS2,,inactive
O=C(NCc1ccncc1)C1c2ccccc2C(=O)N(C2CCCC2)C12CCCCC2 (stereo not given),inactive: 32.2%,
CCOc1ccc(/C=C/c2nc(C#N)c(N3CCN(Cc4ccccc4)CC3)o2)cc1,,"inconclusive: 25.1 µM [inhibitor, partial curve, poor fit]"
COc1cc(C(=O)Nc2sc3c(c2C#N)CCCC3)c(Br)c(OC)c1OC,,"inconclusive: 100 µM [inhibitor, partial curve, poor fit]"
S=c1[nH]nc(COc2ccc3ccccc3c2)o1,,active: 39.8 µM
COc1cc2c(cc1OC)C(C[C@H]1CN(C(=O)C(=O)O)CC[C@H]1CC(=O)O)=NCC2,inactive: 12.9% [at 176 µM],
NC(=O)c1sc(=S)n2c1[nH]c(=O)c1sccc12,,"inconclusive: 44.7 µM [inhibitor, partial curve, poor fit]"

# Laid out differently: results already given
Compound	activity change, negative = inhibition	Potency
COc1ccc(CNC(=O)c2cccc(OCc3ccccc3)c2)cc1	inactive: 6.16%	
COc1ccc(CNC(=S)NCc2ccc(F)cc2)cc1OC	inactive: -25.9%	
COc1ccccc1CNC(=O)CN1C(=O)c2ccc([N+](=O)[O-])cc2C1=O	inactive: -1.08%	
CN(Cc1cccc(F)c1)C(=O)COc1ccc2ccc(=O)oc2c1	inactive: -36.6%	
C=CCn1c(SCc2ccc(Br)cc2F)nc2cc(C(=O)O)ccc2c1=O		inconclusive: 56.2 µM [inhibitor, partial curve, poor fit]
CN(C)C(=O)CC(NC(=O)NCc1ccccc1)c1ccccc1 (stereo not given)	inactive: 6.25%	
CCc1nnc(N/N=C/c2ccc(O)c(OC)c2)n1N		inconclusive: 31.6 µM [inhibitor, single point]
CCOc1ccc(/C=C/c2nc(C#N)c(N3CCN(Cc4ccccc4)CC3)o2)cc1		inconclusive: 25.1 µM [inhibitor, partial curve, poor fit]
